Measured values taken from JP2016028048A.
Results are given in words; binding and its absence hold for the method and conditions named. Some results given as binding are weak or reduced against the parent protein; the word gives no strength.

Chains of the proteins cited; added tags and fusions are not shown. Residues count along the entry.
UniProt P10646, residues 29-304: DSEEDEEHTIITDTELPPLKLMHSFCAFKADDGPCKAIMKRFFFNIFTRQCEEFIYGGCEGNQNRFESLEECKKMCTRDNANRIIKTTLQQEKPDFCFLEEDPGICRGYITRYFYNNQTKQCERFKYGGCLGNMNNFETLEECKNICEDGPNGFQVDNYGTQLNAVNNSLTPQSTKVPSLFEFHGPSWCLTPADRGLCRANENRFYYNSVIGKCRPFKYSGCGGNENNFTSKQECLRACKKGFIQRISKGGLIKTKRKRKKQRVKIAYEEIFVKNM

B1: TP-4A9 (Fab, V domains shown)
VH: QVQLVESGGGLVQPGGSLRLSCAASGFTFSSYGMSWVRQAPGKGLEWVSLISGVSSSTYYADSVKGRFTISRDNSKNTLYLQMNSLRAEDTAVYYCARSYLGYFDVWGQGTLVTVSS
VL: DIELTQPPSVSVAPGQTARISCSGDALGKYYASWYQQKPGQAPVLVIYGDNKRPSGIPERFSGSNSGNTATLTISGTQAEDEADYYCQSYTTRSLVFGGGTKLTVLG
B2: TP-2G6 (Fab, V domains shown)
VH: QVQLQQSGPGLVKPSQTLSLTCAISGDSVSSSSAAWSWIRQSPGRGLEWLGIIYYRSKWYNDYAVSVKSRITINPDTSKNQFSLQLNSVTPEDTAVYYCARHSMVGFDVWGQGTLVTVSS
VL: DIVLTQSPATLSLSPGERATLSCRASQYVTSSYLAWYQQKPGQAPRLLIYGSSRATGVPARFSGSGSGTDFTLTISSLEPEDFATYYCQQYSSSPITFGQGTKVEIKR
B3: TP-4G8 (Fab, V domains shown)
VH: QVQLVESGGGLVQPGGSLRLSCAASGFTFSTYAMHWVRQAPGKGLEWVSTISGYGSFTYYADSVKGRFTISRDNSKNTLYLQMNSLRAEDTAVYYCARNGRKYGQMDNWGQGTLVTVSS
VL: DIELTQPPSVSVAPGQTARISCSGDKLGSKSVHWYQQKPGQAPVLVIYRDTDRPSGIPERFSGSNSGNTATLTISGTQAEDEADYYCQTYDYILNVFGGGTKLTVLG
B4: TP-4H8 (Fab, V domains shown)
VH: QVQLVESGGGLVQPGGSLRLSCAASGFTFSDHAMHWVRQAPGKGLEWVSVIEYSGSKTNYADSVKGRFTISRDNSKNTLYLQMNSLRAEDTAVYYCARGDYYPYLVFAIWGQGTLVTVSS
VL: DIELTQPPSVSVAPGQTARISCSGDSIGKKYVHWYQQKPGQAPVLVIYGDNNRPSGIPERFSGSNSGNTATLTISGTQAEDEADYYCSTADSVITYKNVFGGGTKLTVLG
B5: TP-4E8 (Fab, V domains shown)
VH: QVQLVESGGGLVQPGGSLRLSCAASGFTFNDYAMSWVRQAPGKGLEWVSLIESVSSSTYYADSVKGRFTISRDNSKNTLYLQMNSLRAEDTAVYYCARTIGVLWDDVWGQGTLVTVSS
VL: DIELTQPPSVSVAPGQTARISCSGDALGSKYVSWYQQKPGQAPVLVIYGDNKRPSGIPERFSGSNSGNTATLTISGTQAEDEADYYCQSYTYSLNQVFGGGTKLTVLG

molecular target: ヒト組織因子経路インヒビター (human TFPI) (human) (UniProt P10646); assay: ELISA, Fab in bacterial lysate on human TFPI-coated plate

binding, binds:
B1, B2, B3, B4, B5
